For at least one entry, the source does not settle the construct or the ends of the probe. Results from cells or extracts need not show a direct contact. For some assays here: No signal at the amounts used counts as a negative.
What was measured:
[1] = tested on: ComX (competence alternative sigma factor); assay: pull-down; conditions: protein in an extract
[2] = tested on: Sig42 (primary sigma factor); assay: EMSA; conditions: pull-down fraction of heat-treated cells; protein in an extract
[3] = tested on: Sig42 (primary sigma factor); assay: pull-down; conditions: protein in an extract

## GGGTTAAGCAGCAATATTTACCAGACAAACTCAAAGGAGCTAACTATTTTACTGCCAATGAAACAGGTAAATACGAACGGGCACTGGGGGCTAACAAAGACAAGATTGATAAACTTTCATAATGATGCCCTTTATAAAAAATGGATTTTTAACTTGAATTTTTTTAACATTATGGTATCATATTTAAAGAAGAATTGCTGT (double strand) [Pr-6S RNA promoter, biotinylated]
[1]; lysates of heat- or NaF-treated cells
  binding result: binds

## TTTATATCTCCTTTTTTTGATTATAATTAGTATACTATTTTTTATGAAAAAATCATGGATTTTCTTGAAAAAGTAATATTTTCCTTAGGACACATAATGTAAAATTAGCTGGTAATGATAGTTTCAGAACATCAAAAATGACCGTTTAGGACAAAATAGCTACCATTTAGGATATTTTGCTCCATTTTGAAAATAAATTGTTATACTAGAGATGTCGGTTGCGCAGCCAGACAAAAAACTAAAAATGGGGAAGGGGTATTTATCAT (double strand) [Pr-cipB promoter, biotinylated]
[1]; lysate of +/+ population
  binding result: binds
[1]; lysate of +/- population
  binding result: binds
[1]; lysate of -/- population
  binding result: no binding

## GTTAGTAAAAAGGCACAATTTCTGTGTCTTTTTACCGTTTAGGACAAAATTGCTACCATTTGGGATTTTTGACTCCGTTAGAGGATATTTTCTGTTATACTAAGAATATCTTTATGTTATTAATAAGGAAAGCCTA (double strand) [Pr-cipI promoter, Cy5]
[2]
  binding result: binds

## GTTAGTAAAAAGGCACAATTTCTGTGTCTTTTTACCGTTTAGGACAAAATTGCTACCATTTGGGATTTTTGACTCCGTTAGAGGATATTTTCTGTTATACTAAGAATATCTTTATGTTATTAATAAGGAAAGCCTA (double strand) [Pr-cipI promoter, biotinylated]
[3]; lysate of +/+ population
  binding result: no binding
[3]; lysate of +/- population
  binding result: binds
[3]; lysate of -/- population
  binding result: binds

Reference: doi:10.1101/2025.02.28.640611
